Some entries share one result that the patent states for a list of compounds.
Tested on: Spodoptera eridania
Assay: Southern armyworm (Spodoptera eridania) foliar spray test on lima bean plants
Assay type: in vivo
Details: at less than 300 ppm; sprayed lima bean foliage, larvae; 4 days after treatment

Row | SMILES | mortality in comparison with untreated controls
1 | CNC(=O)c1cc(-n2cncn2)cc(C)c1NC(=O)c1cnn(CC(F)(F)F)c1-c1ncccc1Cl [Compound 1-2, 5-(3-chloro-2-pyridyl)-N-[2-methyl-6-(methylcarbamoyl)-4-(1,2,4-triazol-1-yl)phenyl]-1-(2,2,2-trifluoroethyl)pyrazole-4-carboxamide] | over 75%
2 | CNC(=O)c1cc(/C=N/OC)cc(C)c1NC(=O)c1cnn(CC(F)(F)F)c1-c1ncccc1Cl [Compound 1-1, 5-(3-chloro-2-pyridyl)-N-[4-[(E)-methoxyiminomethyl]-2-methyl-6-(methylcarbamoyl)phenyl]-1-(2,2,2-trifluoroethyl)pyrazole-4-carboxamide] | over 75%

Reference: patent publication US20140171316A1, “ANTHRANILAMIDE COMPOUNDS AND THEIR USE AS PESTICIDES” (BASF SE, priority 2011, published 2014)
